Measured values reported in publication PMC3268111.
No constants are given. Whether binding was seen depends on the method and setting.

Sequences of proteins named here, by UniProt entry; tags and fusion partners are left off. Residues count along the entry.
UniProt P02545, residues 66-320: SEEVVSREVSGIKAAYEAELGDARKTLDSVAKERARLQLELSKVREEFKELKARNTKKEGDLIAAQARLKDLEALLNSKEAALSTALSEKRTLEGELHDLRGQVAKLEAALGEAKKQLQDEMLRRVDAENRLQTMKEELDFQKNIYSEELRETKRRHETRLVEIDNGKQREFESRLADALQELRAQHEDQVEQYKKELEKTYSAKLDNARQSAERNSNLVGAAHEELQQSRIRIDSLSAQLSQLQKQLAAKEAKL

Biological target: human lamin C (66-320) (pLAM5') (human) (UniProt P02545)
Assay: two-hybrid; MatchMaker system, S. cerevisiae HF7c co-transformed with prey (pGAD) and bait (pGBT9 or pLAM5') plasmids; β-galactosidase activity

binding: no binding
B1: MEK2(275-400), C-terminal 126 residues of MEK2 (pGAD-MEK2(275-400)) (domain or fragment, UniProt P36507 275-400)
chain: LEAIFGRPVVDGEEGEPHSISPRPRPPGRPVSGHGMDSRPAMAIFELLDYIVNEPPPKLPNGVFTPDFQEFVNKCLIKNPAERADLKMLTNHTFIKRSEVEEVDFAGWLCKTLRLNQPGTPTRTAV
